Results: PubChem BioAssay AID602346 (Broad Institute, 2012)
In all, about 340,000 compounds went through this assay and about 1,200 (0.35%) were called active. The inconclusive results got no clear call from the source; some entries with a clear call stand among them for comparison. No stated cut-off is given here; in the data, active means inhibition above about 50% (passing the limit was not always enough); inconclusive means no clear call, values can overlap the other calls; inactive means below about 31%.

Assay: blockers of Vif multimerization in cells – imaging, HEK293T, single point, primary screen (AID 602346)
Conditions: Vif self-association by quenched fluorescence, 24 h, at 7.49 µM, hits give high values
In the case of `N#C/C(=C\c1ccc(-c2ccc(C(=O)O)cc2)o1)c1nc2ccccc2[nH]1`, the inhibition is reported as inconclusive: 46.6%. In the case of `Cc1ccc(S(=O)(=O)N2CCC(C(=O)OCC(=O)N3C(C)CCCC3C)CC2)cc1C` (centres undefined), the inhibition is reported as inconclusive: 40%. With `COc1ccc(CNC(=O)CN2C(=O)c3ccc([N+](=O)[O-])cc3C2=O)cc1` the inhibition was inconclusive: 27.7%. For `CC1CN(CCOCCSc2ccccc2)CC(C)O1` (centres undefined), the inhibition was inconclusive: 7.79%. With `COc1cc(CC(=O)Nc2nc(C)cs2)cc(OC)c1OC` the inhibition was inactive: -7.72%. In the case of `CC[C@H](C)[C@H](NC(N)=O)C(=O)NCCc1ccc(OC)c(OC)c1`, the inhibition is reported as inactive: 15.7%. For `O=c1c2ccccc2nc(/C=C/c2ccc(Br)cc2)n1CCCO`, the inhibition was inconclusive: 24.6%. With `CNC(=S)N/N=C(\C)c1ccccc1` the inhibition was inconclusive: 39.1%. In the case of `CCOC(=O)C1=C(N)Oc2cc(O)ccc2C1c1cccc([N+](=O)[O-])c1` (centres undefined), the inhibition is reported as inconclusive: 19.1%. With `CCOC(=O)Cn1nnc(-c2ccc(S(C)(=O)=O)cc2)n1` the inhibition was inconclusive: 35.8%. In the case of `C=C/C(C)=C/C[C@H]1C(=C)CCC2[C@](C)(C(=O)O)CCC[C@@]21C` (some centres undefined), the inhibition is reported as inconclusive: 35.9%. For `COc1cc(Cl)c(C)cc1NC(=O)CSc1cc(Cl)ccc1Cl`, the inhibition was inactive: -6.3%. For `COc1cc(CC(NC(C)=O)C(=O)NC2CCN(C(=O)c3ccc(C)cc3)CC2)cc(OC)c1` (centres undefined), the inhibition was inconclusive: 23.3%. For `CCN(CC)CCOC(=O)c1ccc(N/C=C(/C#N)c2nc(-c3cc4ccccc4oc3=O)cs2)cc1`, the inhibition was active: 57.6%. In the case of `Cc1ccccc1OCC(=O)NNC(=O)Nc1ccc(Cl)cc1`, the inhibition is reported as inconclusive: 34.4%. In the case of `COc1ccc(CNC(=O)c2cc(-c3ccccc3O)n[nH]2)cc1`, the inhibition is reported as inconclusive: 49.2%. With `Cc1ccc(SCC(=O)c2c(C)nc3cc(C)ccn23)cc1` the inhibition was inconclusive: 29.3%. With `COC(=O)Nc1nc2ccc(SC(C)C)cc2[nH]1` the inhibition was inconclusive: 47.5%. With `Clc1ccc2nc(-c3ccccc3)cn2c1` the inhibition was inactive: -0.875%. In the case of `CCOc1ccc(N/C(N)=N/c2nc(CSc3nnc(C)s3)cc(=O)[nH]2)cc1`, the inhibition is reported as inconclusive: 39.4%. In the case of `CC1(C(=O)NS(=O)(=O)c2cccc(Cl)c2)CCN1C(=O)C/C=C/c1ccccc1` (centres undefined), the inhibition is reported as inconclusive: 36.3%. For `Cc1ccc(-c2nn3c(C)nnc3c3ccccc23)cc1S(=O)(=O)NCc1ccccc1`, the inhibition was active: 87%. For `CO[C@@]12[C@H](COC(N)=O)C3=C(C(=O)C(C)=C(N)C3=O)N1C[C@@H]1N[C@@H]12`, the inhibition was inconclusive: 48.5%. With `CC(C(=O)O)c1ccc(N2Cc3ccccc3C2=O)cc1` (centres undefined) the inhibition was inconclusive: 46.7%. With `CCc1ccc(N2CC(C(=O)N3CCN(c4ccc([N+](=O)[O-])cc4)CC3)CC2=O)cc1` (centres undefined) the inhibition was inconclusive: 48.8%. In the case of `O=C(COc1ccc(S(=O)(=O)NC2CCCCC2)cc1)NCC1CCCO1` (centres undefined), the inhibition is reported as inconclusive: 23.3%. In the case of `CC(C)NC(=O)C1Cc2c(-c3ccc4c(c3)OCO4)ccnc2O1` (centres undefined), the inhibition is reported as inconclusive: 23.3%. In the case of `COCCn1c(SCC(=O)N2CCOCC2)nnc1-c1ccncc1`, the inhibition is reported as inactive: 3.27%. In the case of `CN(CCOc1ccccc1)CC(=O)Nc1ccc(Cl)cc1[N+](=O)[O-]`, the inhibition is reported as inactive: -0.699%. With `Cc1cccc(NC(=O)C2CCCN(C(=O)NC3CCCCC3)C2)c1C` (centres undefined) the inhibition was inconclusive: 20.7%. With `CCOc1cccc2cc(-c3csc(NC(=O)CCC(=O)N4CCC(C)CC4)n3)c(=O)oc12` the inhibition was inactive: 7.45%. With `CCc1ccc(NC(=O)C2CCCN(S(=O)(=O)c3ccc4[nH]c(=O)ccc4c3)C2)cc1` (centres undefined) the inhibition was inconclusive: 41.3%. In the case of `C=CCn1c(O)c(C2=c3ccccc3=NC2=O)sc1=Nc1ccc(O)cc1`, the inhibition is reported as inactive: 1.45%. For `Clc1ccc(C2Nc3cccc4cccc(c34)N2)cc1Cl`, the inhibition was active: 57.9%. In the case of `Cc1ccccc1C1c2[nH]c3ccccc3c2C[C@H]2C(=O)N(c3ccccc3C(=O)NCCN3CCOCC3)C(=O)N12` (some centres undefined), the inhibition is reported as inconclusive: 25%. In the case of `N#C/C(=N\Nc1c(Cl)cccc1Cl)C(=O)NN`, the inhibition is reported as inconclusive: 39.8%. In the case of `N/C(=N\OC(=O)c1cccc([N+](=O)[O-])c1)c1cccnc1`, the inhibition is reported as inconclusive: 32.9%. In the case of `CC1Cc2ccccc2N1C(=O)Cn1nnc(-c2ccccc2NC(=O)C2CCC2)n1` (centres undefined), the inhibition is reported as inactive: -6.65%. In the case of `CC(C)(C)NC(=O)CSc1nc(O)cc(=O)n1-c1ccccc1`, the inhibition is reported as active: 94.1%. In the case of `O=C(Nc1ccccc1F)C1CCN(C(=O)NC2CCCCC2)CC1`, the inhibition is reported as inactive: 19.2%. With `Cc1ccc(O)c(-c2cc(-c3cccc(F)c3)n[nH]2)c1` the inhibition was inactive: 4.34%. In the case of `Oc1c(CN2CCOCC2)cc(CN2CCOCC2)c(O)c1O`, the inhibition is reported as inactive: -2.94%. For `CC1CCCCC12NC(=O)N(CC(=O)Nc1sccc1C(N)=O)C2=O` (centres undefined), the inhibition was inactive: -4.84%. For `COc1cccc(NC(=O)CSc2nc3ccccc3nc2N2CCOCC2)c1`, the inhibition was inconclusive: 47.4%. In the case of `CC(C)Oc1cccc(C(=O)NC(=S)Nc2ccc3c4c(cccc24)CC3)c1`, the inhibition is reported as inactive: 13.9%. With `CC(C)N1C(=O)/C(=C\c2nc3ccccc3c(=O)[nH]2)c2ccccc21` the inhibition was inactive: -13%. For `Cc1cc(C)c(C#N)c(SCc2ccccc2F)n1`, the inhibition was inactive: 2.11%. In the case of `Cc1cc(CNC(=O)c2cc(Br)ccc2Cl)nn1C`, the inhibition is reported as inconclusive: 32.1%. In the case of `O=c1c(=NNc2ccccc2Cl)c(=O)c2ccccc12`, the inhibition is reported as inconclusive: 32.5%. With `CC12C=CC3(O1)C(C(=O)N1CCCOC13)C2C(=O)O` (centres undefined) the inhibition was inconclusive: 47.1%. With `COc1cccc(NC(=S)N(CCCN2CCOCC2)Cc2cn(C)c3ccccc23)c1` the inhibition was inconclusive: 28.6%. With `CC1CCCCN1CC(=O)Nc1sccc1C#N` (centres undefined) the inhibition was inconclusive: 23.4%. For `COc1ccccc1-c1nc(S(=O)(=O)c2ccc(Cl)cc2)c(N(C)C)o1`, the inhibition was active: 52.8%. With `COc1ccc(/C=C(\C#N)C(=O)Nc2cc(C)c(Cl)cc2OC)cc1O` the inhibition was inconclusive: 42.6%. For `CCOC(=O)Cc1nn(Cc2ccccc2)c(=O)c2ccccc12`, the inhibition was inconclusive: 25.1%. In the case of `CCOC(=O)c1ccc(NC(=O)c2sc3nc(N4CCOCC4)c4c(c3c2N)CCCC4)cc1`, the inhibition is reported as inactive: -2.62%. In the case of `CCNC(=S)N1C2CCC1CC(NC(=O)NC1CCCCC1)C2` (centres undefined), the inhibition is reported as inconclusive: 42.7%. With `Cc1ccc(CCNC(=O)c2cc(-c3ccncc3)nc3ccc(S(=O)(=O)N4CCOCC4)cc23)cc1` the inhibition was inactive: 7.79%. In the case of `O=C(COC(=O)c1ccc(Cl)s1)c1cc2ccccc2o1`, the inhibition is reported as inconclusive: 38.6%. For `Cc1ccc(/C=c2\sc3nc(-c4ccco4)nn3c2=O)o1`, the inhibition was inconclusive: 34.7%. With `CCC(C(=O)NCC1CCCO1)N(C(=O)CNS(=O)(=O)c1ccccc1)c1ccc(F)cc1` (centres undefined) the inhibition was inconclusive: 33.4%. With `CCC(CC)C(=O)NCCN1CCN(C(=O)C(CC)CC)CC1` the inhibition was inconclusive: 22.3%. For `CCCOc1ccccc1Cn1c(=O)oc2ccccc21`, the inhibition was inconclusive: 32.4%. With `COc1cc(O)cc(O)c1C(=O)/C=C/c1ccccc1` the inhibition was inconclusive: 45.5%. With `COc1ccc(CN2C3CCC2CC(NC(=O)c2cc(OC)c(OC)c(OC)c2)C3)cc1` (centres undefined) the inhibition was active: 62.9%. For `CC1CCN(S(=O)(=O)c2cc(C(=O)Nc3ccccn3)ccc2Br)CC1`, the inhibition was inconclusive: 32.4%. For `N#C/C(=C/c1ccccc1)C(=O)NCc1ccccc1`, the inhibition was inactive: -0.188%. In the case of `COc1ccc(N2CCN(CCNS(=O)(=O)c3ccc(C)cc3)CC2)cc1`, the inhibition is reported as inconclusive: 32.5%. With `CN1OC[C@@H]2CN(C(=O)c3ccco3)[C@H](c3ccc(-c4ccc(C#N)cc4)cc3)C[C@@H]21` the inhibition was inactive: -0.287%. With `COc1ccc(C(=O)Sc2ccc(C)cc2)cc1OC` the inhibition was inconclusive: 29.2%. With `Cc1sc(NC(=O)CN(C(=O)c2ccccc2F)C2CCCC2)c(C(N)=O)c1C` the inhibition was inactive: -20.4%. For `Cc1ccc(C(=O)N/C(=C\c2cccs2)C(=O)NCCc2c[nH]c3ccccc23)cc1C`, the inhibition was inconclusive: 39.1%. In the case of `COc1ccc(OCC(=O)Nc2cc3c(cc2C(=O)O)OCCCO3)cc1`, the inhibition is reported as active: 51.6%. For `CC(=O)Nc1cccc(NC(=O)c2ccc([N+](=O)[O-])cc2Cl)c1`, the inhibition was inconclusive: 30.4%. With `Cc1ccc(-c2cc(C(=O)NCc3ccccn3)c3ccccc3n2)cc1` the inhibition was active: 59.3%. In the case of `C=C(Br)Cn1c(CCCC)nc2ccccc21`, the inhibition is reported as inconclusive: 26.9%. With `O=[N+]([O-])c1ccc(S(=O)(=O)Nc2ccc(-c3ccc(N4CCCC4)nn3)cc2)cc1` the inhibition was inactive: -13.2%. With `COc1ccc(-c2nc(CS(=O)(=O)CC(=O)NCCCc3ccccc3)c(C)o2)cc1` the inhibition was inconclusive: 33.4%. With `CC(/C=C/c1ccc2c(c1)OCO2)=N\NC(=O)C(O)c1ccccc1` (centres undefined) the inhibition was inconclusive: 25%. In the case of `Cc1onc(-c2c(Cl)cccc2Cl)c1C(=O)N=C(N)N1CC(C)OC(C)C1` (centres undefined), the inhibition is reported as inconclusive: 38.1%. In the case of `O=C1OCCC1=COCCCCCOC=C1CCOC1=O`, the inhibition is reported as active: 70.8%. For `CCc1cccc(NS(=O)(=O)c2ccc3c(c2)N(C)CCO3)c1`, the inhibition was inconclusive: 19.1%. With `COC(=O)C1CCN(S(=O)(=O)c2ccc(OC)cc2)CC1` the inhibition was inconclusive: 43.9%. For `Cc1ccc2[nH]c(C(=O)O)c(NC(=O)CN3CCN(c4cccc(C)c4C)CC3)c2c1`, the inhibition was inconclusive: 49.6%. With `O=C(Nc1ccc2c(c1)OCCO2)NC1(C(F)(F)F)Oc2ccccc2O1` the inhibition was inconclusive: 31.5%. For `O=C(Cc1n[nH]c(=O)[nH]c1=O)N/N=C/c1ccccc1O`, the inhibition was inconclusive: 42.6%. In the case of `Cc1ccccc1C(=O)NCC(=O)NC1CC1`, the inhibition is reported as inconclusive: 32%. For `CCCOC(=O)c1ccc(NC(=O)Cc2cccs2)cc1`, the inhibition was inconclusive: 39.9%. For `COc1ccc2ccc3c(c2c1)N=C[C@]1(O3)N(C)c2ccccc2C1(C)C`, the inhibition was inconclusive: 33.9%.
